Measurements taken from patent US20100113613A1, “CYCLOHEXANE POLYALCOHOL FORMULATION FOR TREATMENT OF DISORDERS OF PROTEIN AGGREGATION” (WARATAH PHARMACEUTICALS, priority 2006, published 2010).

Tests used:
[1] = for CSF myo-inositol concentration in comparison to untreated controls: mice, ad libitum in drinking water 10 mg/ml, P=0.35 (myo) and 0.7 (scyllo)
[2] = Brain and CSF levels of inositols after one month ad libitum dosing (GC/MS), Example 2; assay type: in vivo; conditions: TgCRND8 mice
Method: Study drugs were administered either at 30 mg/kg by oral gavage, or ad libitum by dissolution in drinking water. For administration in drinking water, study drugs were dissolved at 10 mg/ml. The average amount of water taken from the bottle was 3 ml daily per animal. The average mouse weight was 33 g. […] Quantification of scyllo-cyclohexanehexyl and myo-inositol. Scyllo-cyclohexanehexyl and myo-cyclohexanehexyl levels in the brain and CSF were analyzed using gas chromatography/mass spectrometry. D-chiro-inositol was used as an internal control, as it is not present in these biological samples. Derivatization: To increase the volatility and thermal stability of these compounds and to allow for proper peak separation, these samples need to first be derivatized. The derivatization was adapted from a method presented previously (Shetty, H U, et al, 1995, Anal. Biochem. 224:279-85), where the hydroxyl groups of the cyclohexanehexyl were replaced with acetyl groups. […] Similarly, a 5-15 μl sample of CSF was mixed with 1 ml of methanol and allowed to stand at room temperature for 5 minutes. The resulting suspension was centrifuged (5 min, 5000×g) and the supernatant transferred to a glass tube (Teflon-lined cap). […] These samples were then evaporated to complete dryness (Speedvac; 60° C.). […] This mixture was flushed with dry nitrogen, securely capped and the tubes heated (80° C.; 30 min). Following derivatization, samples were cooled (RT) and the unreacted acetylating reagent evaporated using a steady stream of nitrogen gas. The derivatized products were re-dissolved (4 ml; hexane-ethyl acetate (80:20, v/v)) and washed with 1 ml of 5% sodium hydrogencarbonate solution. […] The residue was reconstituted in 100 μl; ethyl acetate. 1 μL of this was injected into the GC/MS system. A similar procedure was followed using stock concentrations of scyllo- and myo-cyclohexanehexols, which were then used to generate concentration curves (in this case the internal standard was derivatized separately and then added). GC/MS was performed using a Perkin Elmer TurboMass Autosystem XL, with a quadrupole mass spectrometer and electron ionization. Gas chromatography was performed using a 30 m×0.25 mm×0.25 μm ZB 5 (5% diphenyl/95% dimethylpolysiloxane) column, using the carrier gas Helium (1 ml/min). Samples were injected with the split set to 50 at 1 min and 0 at 5 min, the injector temperature was set at 300° C. and an initial oven temperature of 80° C. After a hold of 1 min, the temperature was ramped at 45° C./min to 187° C. and held there for 15 min. […] Sample peaks were analyzed using selected-ion monitoring, using m/z 168 for determining cyclohexanehexyl levels in the brain and CSF and m/z 373 for determining cyclohexanehexyl levels in plasma, as monitoring the larger ion reduced noise. […]

[3] = system: phosphatidylinositol lipids; assay: Incorporation into phosphatidylinositol lipids within the brain, Example 2; assay type: in vivo; conditions: TgCRND8 mice, ad libitum dosing for one month

Compound | CSF myo-inositol concentration in comparison to untreated controls [1] | decrease in myo-inositol in the brain ([1]; scyllo-inositol ad libitum treatment, P<0.001) | CSF levels of scyllo-cyclohexanehexyl vs untreated ([2]; myo-cyclohexanehexyl ad libitum for one month) | levels of scyllo-cyclohexanehexyl in brain, lower than untreated ([2]; myo-cyclohexanehexyl ad libitum for one month, p=0.008) | decrease in brain scyllo-inositol levels ([1]; myo-inositol ad libitum treatment, P=0.008) | incorporation into phosphatidylinositol lipids of the brain [3] | levels of chiro- and myo-cyclohexanehexyl in the phosphatidylinositol lipids [3] | decrease of myo-cyclohexanehexyl level in brain vs untreated ([2]; scyllo-cyclohexanehexyl ad libitum for one month, p<0.001) | CSF levels of myo-cyclohexanehexyl vs untreated ([2]; scyllo-cyclohexanehexyl ad libitum for one month, p=0.7)
OC1C(O)C(O)C(O)C(O)C1O (stereo not shown) [AZD-103, scyllo-inositol] | did not significantly alter | 0.7 fold | – | – | – | – | – | – | –
O[C@H]1[C@H](O)[C@@H](O)[C@H](O)[C@@H](O)[C@H]1O [myo-inositol, reference compound] | did not significantly alter | – | not significantly different from untreated animals | 80% | 5.4 fold | – | – | – | –
scyllo-inositol [AZD-103] | – | – | – | – | – | No scyllo-cyclohexanehexyl was incorporated into the lipids | unaffected | 30% | not significantly different from untreated animals
